The target of one assay is EWSR1 (human) (UniProt Q01844). The assay is described as follows: two-hybrid.
In another assay the target is T1, QKI (human) (UniProt Q96PU8).
T1 sequence: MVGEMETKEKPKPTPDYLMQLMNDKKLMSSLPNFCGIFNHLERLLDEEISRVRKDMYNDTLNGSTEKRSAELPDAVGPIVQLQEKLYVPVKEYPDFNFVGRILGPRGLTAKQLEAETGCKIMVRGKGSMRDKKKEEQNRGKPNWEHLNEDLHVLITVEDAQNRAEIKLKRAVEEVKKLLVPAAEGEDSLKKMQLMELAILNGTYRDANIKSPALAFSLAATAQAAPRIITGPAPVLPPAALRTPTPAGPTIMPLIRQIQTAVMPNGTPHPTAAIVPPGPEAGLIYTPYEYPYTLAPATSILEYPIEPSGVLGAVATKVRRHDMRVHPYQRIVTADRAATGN
The assay is described as follows: two-hybrid.

By UniProt entry, the sequences of proteins in these tests, tags left out.
UniProt Q01844: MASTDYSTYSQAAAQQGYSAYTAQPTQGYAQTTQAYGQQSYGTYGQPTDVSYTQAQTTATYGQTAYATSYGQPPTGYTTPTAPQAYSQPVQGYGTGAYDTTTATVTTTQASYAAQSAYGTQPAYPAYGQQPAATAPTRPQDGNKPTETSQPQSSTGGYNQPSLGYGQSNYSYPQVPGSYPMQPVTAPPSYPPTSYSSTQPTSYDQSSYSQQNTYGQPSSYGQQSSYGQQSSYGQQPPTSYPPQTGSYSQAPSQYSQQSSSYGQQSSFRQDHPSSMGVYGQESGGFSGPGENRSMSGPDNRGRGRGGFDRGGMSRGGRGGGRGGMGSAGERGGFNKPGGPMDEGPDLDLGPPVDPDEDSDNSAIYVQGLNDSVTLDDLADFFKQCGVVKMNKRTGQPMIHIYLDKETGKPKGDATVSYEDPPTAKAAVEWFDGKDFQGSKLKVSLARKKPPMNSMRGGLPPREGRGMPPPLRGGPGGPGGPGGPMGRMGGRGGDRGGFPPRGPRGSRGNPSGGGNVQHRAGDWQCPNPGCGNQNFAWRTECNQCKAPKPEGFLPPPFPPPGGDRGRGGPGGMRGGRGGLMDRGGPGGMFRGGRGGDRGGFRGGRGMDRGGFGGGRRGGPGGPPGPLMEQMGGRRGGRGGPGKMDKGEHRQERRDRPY

Results are given in words; binding and its absence hold for the method and conditions named. Some binding calls cover weakened binding; strength is not graded here.

B1: NONO (protein, UniProt Q15233 1-471)
chain: MQSNKTFNLEKQNHTPRKHHQHHHQQQHHQQQQQQPPPPPIPANGQQASSQNEGLTIDLKNFRKPGEKTFTQRSRLFVGNLPPDITEEEMRKLFEKYGKAGEVFIHKDKGFGFIRLETRTLAEIAKVELDNMPLRGKQLRVRFACHSASLTVRNLPQYVSNELLEEAFSVFGQVERAVVIVDDRGRPSGKGIVEFSGKPAARKALDRCSEGSFLLTTFPRPVTVEPMDQLDDEEGLPEKLVIKNQQFHKEREQPPRFAQPGSFEYEYAMRWKALIEMEKQQQDQVDRNIKEAREKLEMEMEAARHEHQVMLMRQDLMRRQEELRRMEELHNQEVQKRKQLELRQEEERRRREEEMRRQQEEMMRRQQEGFKGTFPDAREQEIRMGQMAMGGAMGINNRGAMPPAPVPAGTPAPPGPATMMPDGTLGLTPPTTERFGQAATMEGIGAIGGTPPAFNRAAPGAEFAPNKRRRY
For the molecule B1, the binding entry with EWSR1 (human) is given as “binds”.

B2: RBFOX2 (protein, UniProt O43251 1-390)
chain: MQNEPLTPGYHGFPARDSQGNQEPTTTPDAMVQPFTTIPFPPPPQNGIPTEYGVPHTQDYAGQTGEHNLTLYGSTQAHGEQSSNSPSTQNGSLTTEGGAQTDGQQSQTQSSENSESKSTPKRLHVSNIPFRFRDPDLRQMFGQFGKILDVEIIFNERGSKGFGFVTFENSADADRAREKLHGTVVEGRKIEVNNATARVMTNKKMVTPYANGWKLSPVVGAVYGPELYAASSFQADVSLGNDAAVPLSGRGGINTYIPLISLPLVPGFPYPTAATTAAAFRGAHLRGRGRTVYGAVRAVPPTAIPAYPGVVYQDGFYGADLYGGYAAYRYAQPATATAATAAAAAAAAYSDGYGRVYTADPYHALAPAASYGVGAVASLYRGGYSRFAPY
In the case of B2, the binding result with QKI (human) is “binds”.

(Values after paper doi:10.1101/2020.09.14.296160.)
